Laboratory results: patent US20250059273A1 (UNM RAINFOREST INNOVATIONS, published 2025)
No constants are given. Whether binding was seen depends on the method and setting. Some binding calls cover weakened binding; strength is not graded here. Ends that are not written are not given here.

Amino acid sequences for entries named in this document (tags omitted). A change or cut given only in a name is not applied to a line headed by its entry.
UniProt Q99571: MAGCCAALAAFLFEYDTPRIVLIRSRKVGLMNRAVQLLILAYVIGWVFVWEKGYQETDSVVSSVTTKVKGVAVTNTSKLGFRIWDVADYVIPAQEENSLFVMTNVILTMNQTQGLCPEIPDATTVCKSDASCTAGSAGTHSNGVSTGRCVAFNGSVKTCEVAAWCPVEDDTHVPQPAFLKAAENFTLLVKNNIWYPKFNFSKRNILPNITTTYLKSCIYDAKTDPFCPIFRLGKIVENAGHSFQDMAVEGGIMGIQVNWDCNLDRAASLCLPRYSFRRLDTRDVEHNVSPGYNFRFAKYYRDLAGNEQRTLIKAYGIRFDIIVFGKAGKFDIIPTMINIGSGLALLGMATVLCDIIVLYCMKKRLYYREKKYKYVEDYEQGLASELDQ

What was measured:
[1] = molecular target: T1, rat P2X4R extracellular peptide (a.a. 301-313, C-…) (rat); experiment: indirect ELISA, single condition, scFv concentration not shown
T1 sequence (peptide, N-terminal biotin tag; printed with a leading 'C-'): RDLAGKEQRTLTK

human P2X4 peptide [2] = molecular target: T2, human P2X4 peptide (human, UniProt Q99571 301-313); experiment: indirect ELISA of purified scFv on human P2X4 peptide, concentration not shown
T2 construct: range 301-313; The range 301-313 is stated for rat P2X4R, with the human peptide as its 'human form'; also called human Target P2X4R peptide; thirteen amino acid extracellular peptide fragment of human P2X4 receptor
T2 peptide (looked up): RDLAGNEQRTLIK

[3] = molecular target: T1, rat P2X4R extracellular peptide (a.a. 301-313, C-…) (rat); experiment: indirect ELISA titration on P2X4R peptide
[4] = molecular target: T1, rat P2X4R extracellular peptide (a.a. 301-313, C-…) (rat); experiment: ELISA (FIG. 2D)
human P2X4 peptide [5] = molecular target: T2, human P2X4 peptide; experiment: indirect ELISA, wells coated with human P2X4 peptide (200 ng/well), HRP-conjugated mouse anti-His tag antibody, triplicate wells
[6] = molecular target: T1, rat P2X4R extracellular peptide (a.a. 301-313, C-…) (rat); experiment: ribosome display selection / ELISA
human P2X4 peptide [7] = molecular target: T2, human P2X4 peptide; experiment: ELISA
[8] = molecular target: T1, rat P2X4R extracellular peptide (a.a. 301-313, C-…) (rat); experiment: ELISA
[9] = molecular target: T1, rat P2X4R extracellular peptide (a.a. 301-313, C-…) (rat); experiment: indirect ELISA
[10] = molecular target: T1, rat P2X4R extracellular peptide (a.a. 301-313, C-…) (rat); experiment: indirect ELISA of purified scFv on rat P2X4 peptide, concentration not shown

Measured: binding

B1: P2X4-scFv95 (parental murine anti-P2X4R scFv) (scFv)
scFv: MAEVKLVESGGGLVQPGGSLRLSCATSGFTFTDYYMSWVRQPPGKALEWLGFIRNKANGYTTEYSASVKGRFTISRDNSQSILYLQMNTLRAEDSATYYCARWEGDLLYAMDYWGQGTSVTVSSGGGGSGGGGSGGGGGSGGGGSDIQMTQTTSSLSASLGDRVTISCSASQGISNYLNWYQQKPDGTVKLLIYYTSSLHSGVPSRFSGSGSGTDYSLTISNLEPEDIATYYCQQYSKLPWTFGGGTKLEIKRADAAALEHHHHHH
notes: also called mscFv95; clone 95
binds: [1] | human P2X4 peptide [2] | [3] | [4] | human P2X4 peptide [5] | [6] | human P2X4 peptide [7] | [8] | [9] | [10]

B2: humanized P2X4R scFv HC1-LC1 (scFv)
scFv: MAEVKLVESGGGLVQPGGSLRLSCATSGFTFTDYYMSWVRQPPGKALEWLGFIRNKANGYTTEYSASVKGRFTISRDNSQSILYLQMNTLRAEDSATYYCARWEGDLLYAMDYWGQGTSVTVSSGGGGSGGGGSGGGGSDIQMTQTTSSLSASLGDRVTISCSASQGISNYLNWYQQKPDGTVKLLIYYTSSLHSGVPSRFSGSGSGTDYSLTISNLEQEDIATYYCQQYSKLPWTFGGGTKLEIKRAAALEHHHHHH
notes: HC-(G4S)3-LC with C-terminal His tag, expressed in E. coli
binds: human P2X4 peptide [2] | human P2X4 peptide [5] | human P2X4 peptide [7]

B3: humanized P2X4R scFv HC3-LC1 (scFv)
scFv: MAEVQLVESGGGLVQPGGSLRLSCATSGFTFTDYYMHWVRQAPGKGLEWVGFIRNKANGYTTEYSASVKGRFTISRDNSKNTLYLQMNSLRAEDTAVYYCARWEGDLLYAMDYWGQGTLVTVSSGGGGSGGGGSGGGGSDIQMTQTTSSLSASLGDRVTISCSASQGISNYLNWYQQKPDGTVKLLIYYTSSLHSGVPSRFSGSGSGTDYSLTISNLEQEDIATYYCQQYSKLPWTFGGGTKLEIKRAAALEHHHHHH
notes: as for B2
binds: human P2X4 peptide [2] | human P2X4 peptide [5] | human P2X4 peptide [7]

B4: humanized P2X4R scFv HC2-LC1 (scFv)
scFv: MAQVQLQESGPGLVKPSQTLSLTCTTSGFTFTDYYMSWVRQAPGKGLEWIGFIRNKANGYTTEYSASVKGRFTISRDNSKNQFSLRLSSVTAADTAVYYCARWEGDLLYAMDYWGQGTTVTVSSGGGGSGGGGSGGGGSDIQMTQTTSSLSASLGDRVTISCSASQGISNYLNWYQQKPDGTVKLLIYYTSSLHSGVPSRFSGSGSGTDYSLTISNLEQEDIATYYCQQYSKLPWTFGGGTKLEIKRAAALEHHHHHH
notes: as for B2
binds: human P2X4 peptide [2] | human P2X4 peptide [5] | human P2X4 peptide [7]

B5: humanized P2X4R scFv HC2-LC3 (scFv)
scFv: MAQVQLQESGPGLVKPSQTLSLTCTTSGFTFTDYYMSWVRQAPGKGLEWIGFIRNKANGYTTEYSASVKGRFTISRDNSKNQFSLRLSSVTAADTAVYYCARWEGDLLYAMDYWGQGTTVTVSSGGGGSGGGGSGGGGSDIQMTQSPSSLSASVGDRVTITCRASQGISNYLNWYQQKPGKAPKLLIYYTSSLHSGVPSRFSGSGSGTDFTLTISSLQPEDFAYYYCQQYSKLPWTFGGGTKVEIKRAAALEHHHHHH
notes: HC-(G4S)3-LC with C-terminal His tag
binds: human P2X4 peptide [2] | human P2X4 peptide [5] | human P2X4 peptide [7]

B6: humanized hP2X4R scFv HC3-LC3 (scFv)
scFv: MAEVQLVESGGGLVQPGGSLRLSCATSGFTFTDYYMHWVRQAPGKGLEWVGFIRNKANGYTTEYSASVKGRFTISRDNSKNTLYLQMNSLRAEDTAVYYCARWEGDLLYAMDYWGQGTLVTVSSGGGGSGGGGSGGGGSDIQMTQSPSSLSASVGDRVTITCRASQGISNYLNWYQQKPGKAPKLLIYYTSSLHSGVPSRFSGSGSGTDFTLTISSLQPEDFAYYYCQQYSKLPWTFGGGTKVEIKRAAALEHHHHHH
notes: HC-(G4S)3-LC with C-terminal His tag; also called hP2X4R HC3-LC3 scFv; HC3 LC3 hP2X4R scFv
binds: human P2X4 peptide [2] | human P2X4 peptide [5] | human P2X4 peptide [7]

B7: P2X4-scFv12 (scFv)
scFv: MADVKLQESGPGLVKPSQSLSLTCSVTGYSITSGYYWNWIRQFPGNKLEWMGYISYDGSNNYNPSLKNRISITRDTSKNQFFLKLNSVTTEDTATYYCARSDYDLYYYAMDYWGQGTSVTVSSAKTTPPSGGGGSGGGGSGGGGGSGGGGSDIVMTQSPATLSVTPGDRVSLSCRASQSISDYLHWYQQKSHESPRLLIKYASQSISGIPSRFSGSGSGSDFTLSINSVEPEDVGVYYCQNGHSFPLTFGSGTKLEIKRADAAALEHHHHHH
binds: [1] | [3] | [6]
